US5989326A, “Dyes for ink jet printing” (Ilford Imaging Switzerland GmbH, priority 1997, dated 1999)

Legend:
[1] = Colour co-ordinates (L*a*b*) of printed samples; details: printed on gelatine-coated receiving sheet, HP560 ink jet printer
Protocol: (§1) The present invention in so far as it relates to inks is further illustrated by using dyes described in Tables 1, 2 and 3. 100 g of each ink were prepared by heating the dye (3-7 g), 5 g of glycerol, 1.1 g of tetraethyleneglycole and 1.2 g of a biocide solution (Promexal X50, available from Zeneca, Manchester, England) together with water to a temperature of approximately 50° C. under stirring for one hour to make a solution, cooling it down to 20° C., adjusting pH to 7.5 and passing the solution through a Millipore® filter of 0.5 μm pore diameter. The dye quantity was adjusted in a way that the printed density was the same for all dyes.
(§2) An ink receiving sheet for the testing procedures was prepared in the following way: 30 g gelatine with a high isoelectric point (type St 70'810, available from Deutsche Gelatinefabriken, Eberbach, Germany) were dissolved in 360 ml of deionised water. To this solution was added 1 g of a surfactant (Olin 10G, available from Olin Corporation, Norwalk, USA). Immediately before coating 6.6 g of a 3% solution of 2-(4-dimethyl-carbamoyl-pyridino)-ethane-sulfonate was added and the pH was adjusted to 6.5. 100 g/m^2 of this solution was then coated onto an RC paper support using a barcoater. The sheets were dried for 12 hours.
(§3) The inks were then jetted onto these receiving sheets with an HP560 ink jet printer to evaluate their printing performance. The evaluation methods for (A) dye solubility, (B) colour co-ordinates, (C) smudge resistance and (D) light fastness are as follows:
L*a*b*-values were measured on printed samples using a Gretag SPM 100 spectrometer, available from Gretag AG, Regensdorf, Switzerland.

[2] = Smudge resistance of printed images; set-up: key: ⊕: Little or no smear; .diamond.: Slight smear; .O slashed.: Severe smear; details: HP560 ink jet printer
Protocol: as §1, §2, §3
The smudge behaviour was evaluated by determining the degree of smear of the dye in images printed as described above according to the following criteria:
⊕: Little or no smear
.O slashed.: Severe smear

[3] = Light stability: loss of density of printed samples on Xenon irradiation; details: total illumination 20 kJoule/cm^2, 6500 W Xenon lamp; % loss of initial density
Protocol: as §1, §2, §3
The printed samples were irradiated in an Atlas Ci35A Weather-O-Meter® with a 6500 W Xenon lamp until a total illumination of 20 kJoule/cm^2 was reached. The loss of density was measured with an X-Rite® densitometer and is expressed in % loss of initial density.

[4] = Bronzing of printed samples; details: no loss of density figure given
Protocol: as §1, §2
The inks were then jetted onto these receiving sheets with an HP560 ink jet printer to evaluate their printing performance. The evaluation methods for (A) dye solubility, (B) colour co-ordinates, (C) smudge resistance and (D) light fastness are as follows: […]

| Compound | L*-Value [1] | a*-Value [1] | b*-Value [1] | Smudge Value [2] | Loss of Density in % [3] | Bronzing (printed in column Loss of Density in %) [4] |
| --- | --- | --- | --- | --- | --- | --- |
| COc1cc(N=Nc2cccc(S(=O)(=O)O)c2)c(C)cc1N=Nc1c(S(=O)(=O)O)cc2ccc(NCCS(=O)(=O)O)cc2c1O [Compound 1] | 10.0 | 13.6 | -0.8 | ⊕ | 6% |  |
| COc1cc(N=Nc2cc(S(=O)(=O)O)c3cccc(S(=O)(=O)O)c3c2)c(C)cc1N=Nc1c(S(=O)(=O)O)cc2ccc(NCCS(=O)(=O)O)cc2c1O [Compound 4] | 2.4 | 3.8 | -0.9 | ⊕ | 3% |  |
| Cc1cc(N=Nc2c(S(=O)(=O)O)cc3ccc(NCCS(=O)(=O)O)cc3c2O)c(OCCO)cc1N=Nc1cc(S(=O)(=O)O)c2cccc(S(=O)(=O)O)c2c1 [Compound 5] | 2.6 | 2.4 | -0.4 | ⊕ | 3.3% |  |
| COc1cc(N=Nc2ccc3c(S(=O)(=O)O)cc(S(=O)(=O)O)cc3c2)c(C)cc1N=Nc1c(S(=O)(=O)O)cc2ccc(NCCS(=O)(=O)O)cc2c1O [Compound 6] | 15.5 | 5.1 | 0.7 | ⊕ | 5% |  |
| COc1cc(N=Nc2c(S(=O)(=O)O)cc3ccc(NCCS(=O)(=O)O)cc3c2O)c(OC)cc1N=Nc1cc(S(=O)(=O)O)c2cccc(S(=O)(=O)O)c2c1 [Compound 7] | 5.8 | 4.3 | 0.7 | .diamond. | 7% |  |
| Cc1cc(N=Nc2c(S(=O)(=O)O)cc3ccc(Nc4cccc(S(=O)(=O)O)c4)cc3c2O)ccc1N=Nc1cc(S(=O)(=O)O)c2cccc(S(=O)(=O)O)c2c1 [Compound 10] | 4.1 | 13.0 | 2.9 | ⊕ | 8.6% |  |
| COc1cc(N=Nc2cccc(C(=O)O)c2)c(NC(C)=O)cc1N=Nc1c(S(=O)(=O)O)cc2ccc(N)cc2c1O [Compound 11] | 20.6 | 7.5 | -1.1 | .O slashed. |  | Bronzing |
| COc1cc(N=Nc2cccc(C(=O)O)c2)c(NC(C)=O)cc1N=Nc1c(S(=O)(=O)O)cc2ccc(Nc3ccc(C(=O)O)cc3)cc2c1O [Compound 12] | 13.2 | 4.6 | -3.3 | .diamond. | 10.3% |  |
| COc1cc(N=Nc2cccc(C(=O)O)c2)c(NC(C)=O)cc1N=Nc1c(S(=O)(=O)O)cc2ccc(NCCC(=O)O)cc2c1O [Compound 13] | 2.2 | 1.3 | 1.1 | .O slashed. |  | Bronzing |
| COc1cc(N=Nc2c(S(=O)(=O)O)cc3ccc(Nc4ccc(C(=O)O)cc4)cc3c2O)c(OC)cc1N=Nc1ccc(C(=O)O)cc1 [Compound 14] | 11.1 | 8.1 | -5.0 | .O slashed. | 10.6% |  |
| COc1cc(N=Nc2cccc(C(=O)O)c2)c(C)cc1N=Nc1c(S(=O)(=O)O)cc2ccc(N)cc2c1O [Compound 15] | 12.9 | 8.1 | 4.0 | .O slashed. |  | Bronzing |
